Laboratory results published in article PMC4102245, “A molecular model for the role of SYCP3 in meiotic chromosome organisation” (eLife, 2014).

Columns and labels:
[1] = target: T1, SYCP3 dCt6 dBP2 K88A,R89A,K90A,R91A (human) (UniProt Q8IZU3); assay: fluorescence anisotropy; conditions: 20 mM Tris pH 8.0, 150 mM KCl; FA at 25 C with 25 nM DNA (0-20 uM protein); recombinant protein; residues 1-230; protein details: N-terminal His6, TEV-cleaved; label: 5' FAM
T1 sequence (looked up): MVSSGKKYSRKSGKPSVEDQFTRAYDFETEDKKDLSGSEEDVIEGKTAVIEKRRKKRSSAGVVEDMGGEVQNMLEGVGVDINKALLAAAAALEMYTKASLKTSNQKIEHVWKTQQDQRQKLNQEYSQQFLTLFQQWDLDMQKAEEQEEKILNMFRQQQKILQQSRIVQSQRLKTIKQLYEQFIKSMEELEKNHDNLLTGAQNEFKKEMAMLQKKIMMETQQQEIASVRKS

[2] = target: T2, SYCP3 dCt6 dBP1 K52A,R53A,R54A,K55A,K56A,R57A (human) (UniProt Q8IZU3); assay: fluorescence anisotropy; conditions: 20 mM Tris pH 8.0, 150 mM KCl; FA at 25 C with 25 nM DNA (0-20 uM protein); recombinant protein; residues 1-230; protein details: N-terminal His6, TEV-cleaved; label: 5' FAM
T2 sequence (looked up): T1 sequence (looked up) with K52A, R53A, R54A, K55A, K56A, R57A, A88K, A89R, A90K, A91R

“ATGGTGTGTGTAGGTTAATGTGAGGAGGAGAGGTGAAGAAGGAGGAGAGAAGAAGGAGGC (double strand) [60 bp FAM-dsDNA]”: binds more weakly [1]; binds more weakly [2].

Changes are numbered by the printed parent chain. The comparison behind a weaker result is the experiment's own reference, which may not be listed here. Where a protein sequence is shown, tags need not be part of it.
